Where “and” joins values, the source holds several entries; their conditions need not be identical. Equal values may be shown once. End groups of sequences in plain letters are not given here.
Assay: peptide synthesis
Conditions: for purity (crude or final not stated): analytical reverse-phase HPLC, VYDAC C-18, 220 nm, main peak area %, electrospray ionization MS

Substance | purity (crude or final not stated) (whole synthesis) [%] | also measured
KKRAISFLGKKWQK | 32 | –
KRFLKKWKAQKRFLKKWKAQKRFLK | 14 | –
KSKVGWLIQLFHKK | – | step yield (purification step, assuming desired peptide constituted 69% of starting material): 55%; crude HPLC purity (whole synthesis, 220 nm): about 69%; final HPLC purity (whole synthesis, 220 nm): 98%; purity (crude or final not stated) (whole synthesis, run 1): 78% and 69%
KWKVFKKIEK + 148-161 | 27 | –
KWQLRSKGKIKFKA (KWQLRSKGKIKIFKA) | 17 | –
QKRFLKKWKAQKRFLKKWKAQKRFLK | 21 | –
βAla-Nα,Nε-[Nα,Nε(BPI.2)1 -Lys]Lys | 54 | –
βAla-Nα,Nε-[Nα,Nε(BPI.13)1-Lys]Lys | 49 | –

— US20040023884A1 (priority 1993, published 2004)
